No constants are given. Whether binding was seen depends on the method and setting. Binding seen in cells or lysates may run through a third protein. These calls come from enrichment with a bait or labelling near it, and not all partners need be listed.

By UniProt entry, the sequences of proteins in these tests, tags left out. Residues count along the entry.
UniProt Q13330, residues 162-715: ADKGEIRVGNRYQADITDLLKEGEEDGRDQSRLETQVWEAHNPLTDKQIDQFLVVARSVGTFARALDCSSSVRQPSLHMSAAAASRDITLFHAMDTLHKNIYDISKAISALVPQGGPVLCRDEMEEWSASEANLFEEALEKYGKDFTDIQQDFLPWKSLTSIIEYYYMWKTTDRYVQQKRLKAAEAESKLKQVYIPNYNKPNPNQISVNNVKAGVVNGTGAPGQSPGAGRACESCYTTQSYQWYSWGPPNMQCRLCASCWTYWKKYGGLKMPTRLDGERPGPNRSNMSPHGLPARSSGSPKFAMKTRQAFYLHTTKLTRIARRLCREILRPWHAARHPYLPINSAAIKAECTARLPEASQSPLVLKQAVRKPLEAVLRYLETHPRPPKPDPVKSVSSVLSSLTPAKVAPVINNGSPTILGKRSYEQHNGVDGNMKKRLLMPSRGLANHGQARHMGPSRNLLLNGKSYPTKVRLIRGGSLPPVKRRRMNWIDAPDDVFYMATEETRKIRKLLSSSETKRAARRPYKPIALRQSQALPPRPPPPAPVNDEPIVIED
UniProt Q13547: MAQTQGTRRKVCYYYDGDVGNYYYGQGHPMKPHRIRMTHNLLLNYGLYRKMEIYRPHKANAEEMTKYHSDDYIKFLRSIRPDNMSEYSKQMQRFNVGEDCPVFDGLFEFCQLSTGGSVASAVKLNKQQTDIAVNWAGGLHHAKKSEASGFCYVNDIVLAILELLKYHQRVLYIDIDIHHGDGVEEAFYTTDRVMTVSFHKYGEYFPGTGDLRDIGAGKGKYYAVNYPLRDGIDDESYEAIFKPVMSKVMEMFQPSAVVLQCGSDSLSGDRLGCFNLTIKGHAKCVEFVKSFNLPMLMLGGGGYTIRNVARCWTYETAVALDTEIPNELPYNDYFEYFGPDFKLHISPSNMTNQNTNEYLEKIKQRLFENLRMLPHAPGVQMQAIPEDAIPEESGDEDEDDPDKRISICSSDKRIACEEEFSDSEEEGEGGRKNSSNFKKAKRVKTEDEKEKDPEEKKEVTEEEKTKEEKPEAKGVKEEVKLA

For this experiment, the target named is MTA1-C (residues 162–715) (human) (UniProt Q13330). The experiment can be described thus: affinity purification with mass spectrometry; Flag-tagged MTA1 fragments co-transfected with HDAC1 in HEK293F; complexes purified on FLAG resin; endogenous RBBP4/7 identified by peptide mass spectrometry; ratio by densitometry of the SDS-PAGE gel (ImageJ).

In the case of “HDAC1 (residues 1–482), untagged (from UniProt Q13547 1-482) (enzyme)”, the binding result is recorded as “binds”.

(Values after article PMC4841774 (eLife, 2016).)
